Three substances from article PMC6988362 can be followed below.

The chains behind the UniProt entries cited, without tags or fusion partners. Residues count along the entry.
UniProt Q9QX01: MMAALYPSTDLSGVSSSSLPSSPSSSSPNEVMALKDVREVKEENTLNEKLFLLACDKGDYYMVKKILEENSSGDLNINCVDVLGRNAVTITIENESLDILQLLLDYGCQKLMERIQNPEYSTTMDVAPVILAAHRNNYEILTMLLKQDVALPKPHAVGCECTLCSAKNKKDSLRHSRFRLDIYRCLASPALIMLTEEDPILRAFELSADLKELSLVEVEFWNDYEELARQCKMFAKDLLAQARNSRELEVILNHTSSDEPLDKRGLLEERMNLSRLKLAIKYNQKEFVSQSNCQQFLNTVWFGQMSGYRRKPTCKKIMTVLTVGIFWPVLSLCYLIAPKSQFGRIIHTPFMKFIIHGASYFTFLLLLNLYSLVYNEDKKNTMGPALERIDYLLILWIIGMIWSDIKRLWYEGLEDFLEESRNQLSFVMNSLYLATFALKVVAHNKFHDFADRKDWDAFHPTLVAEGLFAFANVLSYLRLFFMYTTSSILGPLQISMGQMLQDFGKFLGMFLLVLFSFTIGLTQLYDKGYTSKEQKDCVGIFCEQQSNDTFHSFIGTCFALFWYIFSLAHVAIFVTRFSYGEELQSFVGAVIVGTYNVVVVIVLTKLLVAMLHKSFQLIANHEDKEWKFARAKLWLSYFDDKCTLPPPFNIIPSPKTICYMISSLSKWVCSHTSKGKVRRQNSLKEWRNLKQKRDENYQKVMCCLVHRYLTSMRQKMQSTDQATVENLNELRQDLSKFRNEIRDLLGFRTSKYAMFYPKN
UniProt P48995: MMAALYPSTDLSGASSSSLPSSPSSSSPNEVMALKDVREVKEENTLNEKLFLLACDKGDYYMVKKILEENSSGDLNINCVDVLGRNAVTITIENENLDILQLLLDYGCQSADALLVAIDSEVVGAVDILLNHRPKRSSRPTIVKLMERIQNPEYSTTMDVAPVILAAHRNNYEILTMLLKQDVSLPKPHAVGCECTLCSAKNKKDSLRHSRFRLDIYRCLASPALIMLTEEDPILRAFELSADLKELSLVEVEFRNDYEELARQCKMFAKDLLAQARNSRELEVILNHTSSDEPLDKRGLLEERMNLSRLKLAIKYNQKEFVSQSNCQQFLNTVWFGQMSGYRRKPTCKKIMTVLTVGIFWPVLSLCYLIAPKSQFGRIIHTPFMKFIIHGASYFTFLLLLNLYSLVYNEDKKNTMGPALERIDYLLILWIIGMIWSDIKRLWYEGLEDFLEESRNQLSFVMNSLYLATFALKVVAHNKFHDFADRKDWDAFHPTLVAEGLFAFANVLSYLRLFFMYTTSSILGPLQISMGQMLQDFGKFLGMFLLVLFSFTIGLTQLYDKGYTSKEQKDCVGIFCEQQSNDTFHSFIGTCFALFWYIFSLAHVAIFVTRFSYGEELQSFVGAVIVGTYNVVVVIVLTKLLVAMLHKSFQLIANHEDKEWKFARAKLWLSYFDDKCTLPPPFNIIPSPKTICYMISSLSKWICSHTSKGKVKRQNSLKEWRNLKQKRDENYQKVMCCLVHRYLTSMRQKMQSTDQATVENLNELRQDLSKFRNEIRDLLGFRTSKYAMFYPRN
UniProt P23385, residues 19-1199: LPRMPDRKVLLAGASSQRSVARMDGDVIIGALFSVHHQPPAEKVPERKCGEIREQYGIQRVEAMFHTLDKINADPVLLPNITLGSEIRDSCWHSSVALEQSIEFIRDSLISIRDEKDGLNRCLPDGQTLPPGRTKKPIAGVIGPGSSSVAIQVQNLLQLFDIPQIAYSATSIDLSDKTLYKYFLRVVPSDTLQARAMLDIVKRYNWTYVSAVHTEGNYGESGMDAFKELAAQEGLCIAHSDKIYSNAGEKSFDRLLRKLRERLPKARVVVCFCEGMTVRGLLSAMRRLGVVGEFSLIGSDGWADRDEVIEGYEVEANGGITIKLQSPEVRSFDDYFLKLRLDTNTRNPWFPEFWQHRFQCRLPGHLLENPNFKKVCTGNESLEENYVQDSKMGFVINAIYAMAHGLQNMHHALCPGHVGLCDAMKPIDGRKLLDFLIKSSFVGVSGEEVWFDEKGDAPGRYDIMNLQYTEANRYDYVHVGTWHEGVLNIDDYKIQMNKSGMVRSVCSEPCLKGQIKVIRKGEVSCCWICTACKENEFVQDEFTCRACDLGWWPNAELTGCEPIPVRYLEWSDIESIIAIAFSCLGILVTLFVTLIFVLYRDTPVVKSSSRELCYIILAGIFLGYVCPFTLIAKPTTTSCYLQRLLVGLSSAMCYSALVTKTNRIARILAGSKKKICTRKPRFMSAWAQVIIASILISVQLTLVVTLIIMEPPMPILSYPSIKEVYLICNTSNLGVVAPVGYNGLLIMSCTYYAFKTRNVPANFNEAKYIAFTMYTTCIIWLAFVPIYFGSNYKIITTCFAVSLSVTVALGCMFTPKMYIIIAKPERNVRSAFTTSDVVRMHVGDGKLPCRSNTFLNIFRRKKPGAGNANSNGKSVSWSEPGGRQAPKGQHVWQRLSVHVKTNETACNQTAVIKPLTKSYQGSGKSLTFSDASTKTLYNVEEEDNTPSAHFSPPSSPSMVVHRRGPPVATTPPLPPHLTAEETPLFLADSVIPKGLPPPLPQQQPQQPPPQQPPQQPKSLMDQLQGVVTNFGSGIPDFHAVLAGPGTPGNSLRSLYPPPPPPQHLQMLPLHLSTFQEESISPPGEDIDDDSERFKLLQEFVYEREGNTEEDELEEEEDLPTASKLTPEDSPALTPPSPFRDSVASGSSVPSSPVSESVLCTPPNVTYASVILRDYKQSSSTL
UniProt Q9UBN4: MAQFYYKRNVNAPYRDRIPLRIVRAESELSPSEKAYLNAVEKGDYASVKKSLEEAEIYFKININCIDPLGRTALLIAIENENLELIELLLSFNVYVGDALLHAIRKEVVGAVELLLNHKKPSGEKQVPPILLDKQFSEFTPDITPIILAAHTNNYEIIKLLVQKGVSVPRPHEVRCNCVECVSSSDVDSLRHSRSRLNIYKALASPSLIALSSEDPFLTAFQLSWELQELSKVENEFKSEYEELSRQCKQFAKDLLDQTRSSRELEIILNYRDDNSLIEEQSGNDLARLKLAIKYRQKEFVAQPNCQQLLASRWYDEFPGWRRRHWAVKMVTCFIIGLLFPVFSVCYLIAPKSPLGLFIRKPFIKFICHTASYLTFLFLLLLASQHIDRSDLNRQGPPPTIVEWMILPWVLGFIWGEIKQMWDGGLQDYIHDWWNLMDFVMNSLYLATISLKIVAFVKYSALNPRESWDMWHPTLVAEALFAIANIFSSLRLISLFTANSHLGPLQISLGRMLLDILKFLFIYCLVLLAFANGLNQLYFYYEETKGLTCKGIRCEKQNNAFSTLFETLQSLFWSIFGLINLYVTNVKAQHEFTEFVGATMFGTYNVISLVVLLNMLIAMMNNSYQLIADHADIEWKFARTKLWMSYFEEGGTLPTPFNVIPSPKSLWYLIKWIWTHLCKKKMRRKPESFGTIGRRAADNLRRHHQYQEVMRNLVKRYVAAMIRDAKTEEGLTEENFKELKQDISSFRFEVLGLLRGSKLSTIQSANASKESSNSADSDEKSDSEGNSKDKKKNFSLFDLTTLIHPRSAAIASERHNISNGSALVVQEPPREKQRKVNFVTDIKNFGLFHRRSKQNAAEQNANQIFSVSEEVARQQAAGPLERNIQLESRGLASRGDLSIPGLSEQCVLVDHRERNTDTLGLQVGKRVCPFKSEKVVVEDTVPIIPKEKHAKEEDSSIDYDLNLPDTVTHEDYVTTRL

No constants are given. Whether binding was seen depends on the method and setting. In cells and extracts the contact can be indirect. Some binding calls cover weakened binding; strength is not graded here.

Assay [1] deals with TRPC1, endogenous in hippocampus (rat (endogenous in hippocampus)) (UniProt Q9QX01). Kind of assay: co-IP; hippocampus homogenate in PBS, 1% Triton X-100; 1 mg protein precipitated with rabbit polyclonal anti-TRPC1 and protein-G sepharose at 4 °C; control with antibody preadsorbed with antigen peptide; Western blot with anti-mGluR1a. (A western blot detects proteins with antibodies after separation by electrophoresis.)

Assay [2] has as its target FLAG-tagged TRPC1, expressed from pcDNA3.1-FLAG-TRPC1 in HEK-293 cells (UniProt P48995). Kind of assay: co-IP; HEK-293 cells transiently co-transfected; lysis buffer 50 mM Tris pH 7.4, 120 mM NaCl, 1% Triton X-100, 2 mM EDTA; precipitated with anti-FLAG or anti-mGluR1a and protein-G sepharose; Western blot with anti-mGluR1a or anti-myc.
In assay [3] the target is metabotropic glutamate receptor 1a (mGluR1a), expressed from pRK5-mGluR1a in HEK-293 cells (UniProt P23385). Described as above.

With “metabotropic glutamate receptor 1a (mGluR1a), endogenous in hippocampus (from UniProt P23385 19-1199)”, the binding entry in assay [1] is on record as “binds”.

Regarding “metabotropic glutamate receptor 1a (mGluR1a), expressed from pRK5-mGluR1a in HEK-293 cells (from UniProt P23385 19-1199)”, the binding entry in assay [2] is listed as “binds”.

With “myc-tagged TRPC4, expressed from pcDNA3.1-myc-TRPC4 in HEK-293 cells (from UniProt Q9UBN4 1-977)”, the binding result in assay [3] is “binds”.
